Read-outs that look alike come from different tables or passages of the source. Some of these results come from one statement about several compounds together.
Legend:
[1] = system: wheat rust fungus (Puccinia recondita); test: Wheat rust control test, foliar spray on wheat (Test Examples 3, 13, 14); assay type: in vivo; details: wheat SHIROGANE, inoculated 5 days after spraying
[2] = system: rice blast fungus (Magnaporthe grisea); assay type: in vivo; details: rice NIHONBARE, 6 days

Cc1cc(-c2cccc(C(C)C)n2)ccc1OCc1c(C)cccc1-n1nnn(C)c1=O [Present Compound 149]
≤ 30%: area of lesion spots relative to that on an untreated plant ([1]; 200 ppm foliar spray) | lesion area with respect to the lesion area on the non-treated plant ([2]; 200 ppm foliar spray) | lesion area with respect to the lesion area on the non-treated plant ([2]; 500 ppm foliar spray)

Cc1cc(-c2ncccc2C#N)ccc1OCc1c(C)cccc1-n1nnn(C)c1=O [Present Compound 150]
≤ 30%: area of lesion spots relative to that on an untreated plant ([1]; 200 ppm foliar spray) | lesion area with respect to the lesion area on the non-treated plant ([2]; 500 ppm foliar spray)

Cc1cc(C)nc(-c2ccc(OCc3c(C)cccc3-n3nnn(C)c3=O)c(C)c2)c1 [Present Compound 151]
≤ 30%: area of lesion spots relative to that on an untreated plant ([1]; 200 ppm foliar spray) | lesion area with respect to the lesion area on the non-treated plant ([2]; 200 ppm foliar spray) | lesion area with respect to the lesion area on the non-treated plant ([2]; 500 ppm foliar spray)

Cc1cc(-c2ccccn2)c(C)cc1OCc1c(C)cccc1-n1nnn(C)c1=O [Present Compound 152]
≤ 30%: area of lesion spots relative to that on an untreated plant ([1]; 200 ppm foliar spray) | area of lesion spots relative to that on an untreated plant ([1]; 500 ppm foliar spray) | lesion area with respect to the lesion area on the non-treated plant ([2]; 200 ppm foliar spray) | lesion area with respect to the lesion area on the non-treated plant ([2]; 500 ppm foliar spray)

Cc1cccc(-c2cc(C)c(OCc3c(C)cccc3-n3nnn(C)c3=O)cc2C)n1 [Present Compound 153]
≤ 30%: area of lesion spots relative to that on an untreated plant ([1]; 200 ppm foliar spray) | lesion area with respect to the lesion area on the non-treated plant ([2]; 200 ppm foliar spray)

Cc1ccc(-c2cc(C)c(OCc3c(C)cccc3-n3nnn(C)c3=O)cc2C)nc1 [Present Compound 154]
≤ 30%: area of lesion spots relative to that on an untreated plant ([1]; 200 ppm foliar spray) | lesion area with respect to the lesion area on the non-treated plant ([2]; 200 ppm foliar spray) | lesion area with respect to the lesion area on the non-treated plant ([2]; 500 ppm foliar spray)

Cc1cc(-c2cccc(Cl)n2)c(C)cc1OCc1c(C)cccc1-n1nnn(C)c1=O [Present Compound 158]
≤ 30%: area of lesion spots relative to that on an untreated plant ([1]; 200 ppm foliar spray) | area of lesion spots relative to that on an untreated plant ([1]; 500 ppm foliar spray) | lesion area with respect to the lesion area on the non-treated plant ([2]; 200 ppm foliar spray) | lesion area with respect to the lesion area on the non-treated plant ([2]; 500 ppm foliar spray)

Cc1cc(-c2cc(Cl)ccn2)c(C)cc1OCc1c(C)cccc1-n1nnn(C)c1=O [Present Compound 159]
≤ 30%: area of lesion spots relative to that on an untreated plant ([1]; 200 ppm foliar spray) | lesion area with respect to the lesion area on the non-treated plant ([2]; 200 ppm foliar spray) | lesion area with respect to the lesion area on the non-treated plant ([2]; 500 ppm foliar spray)

COc1cccnc1-c1cc(C)c(OCc2c(C)cccc2-n2nnn(C)c2=O)cc1C [Present Compound 160]
≤ 30%: area of lesion spots relative to that on an untreated plant ([1]; 200 ppm foliar spray) | area of lesion spots relative to that on an untreated plant ([1]; 500 ppm foliar spray) | lesion area with respect to the lesion area on the non-treated plant ([2]; 200 ppm foliar spray)

Cc1cc(-c2ncccc2C#N)c(C)cc1OCc1c(C)cccc1-n1nnn(C)c1=O [Present Compound 161]
≤ 30%: area of lesion spots relative to that on an untreated plant ([1]; 200 ppm foliar spray) | lesion area with respect to the lesion area on the non-treated plant ([2]; 200 ppm foliar spray) | lesion area with respect to the lesion area on the non-treated plant ([2]; 500 ppm foliar spray)

Cc1cc(-c2ccc(Cl)cn2)c(C)cc1OCc1c(C)cccc1-n1nnn(C)c1=O [Present Compound 162]
≤ 30%: area of lesion spots relative to that on an untreated plant ([1]; 200 ppm foliar spray) | lesion area with respect to the lesion area on the non-treated plant ([2]; 200 ppm foliar spray) | lesion area with respect to the lesion area on the non-treated plant ([2]; 500 ppm foliar spray)

Cc1cc(-c2ncccc2Cl)c(C)cc1OCc1c(C)cccc1-n1nnn(C)c1=O [Present Compound 163]
≤ 30%: area of lesion spots relative to that on an untreated plant ([1]; 200 ppm foliar spray) | area of lesion spots relative to that on an untreated plant ([1]; 500 ppm foliar spray) | lesion area with respect to the lesion area on the non-treated plant ([2]; 200 ppm foliar spray) | lesion area with respect to the lesion area on the non-treated plant ([2]; 500 ppm foliar spray)

Cc1ccnc(-c2cc(C)c(OCc3c(C)cccc3-n3nnn(C)c3=O)cc2C)c1 [Present Compound 164]
≤ 30%: area of lesion spots relative to that on an untreated plant ([1]; 200 ppm foliar spray) | lesion area with respect to the lesion area on the non-treated plant ([2]; 200 ppm foliar spray)

Cc1cc(-c2cnccn2)c(C)cc1OCc1c(C)cccc1-n1nnn(C)c1=O [Present Compound 165]
≤ 30%: area of lesion spots relative to that on an untreated plant ([1]; 200 ppm foliar spray) | lesion area with respect to the lesion area on the non-treated plant ([2]; 200 ppm foliar spray) | lesion area with respect to the lesion area on the non-treated plant ([2]; 500 ppm foliar spray)
